These are yes or no findings as the source states them, for the method shown. Some binding calls cover weakened binding; strength is not graded here.
Biological target: CPG2*(N272) (Pseudomonas strain RS16) (UniProt P06621)
Assay: non-reducing SDS-PAGE of COS cell extracts (homodimer)

B1: CPG2*(N272) (enzyme)
chain: ALAQKRDNVLFQAATDEQPAVIKTLEKLVNIETGTGDAEGIAAAGNFLEAELKNLGFTVTRSKSAGLVVGDNIVGKIKGRGGKNLLLMSHMDTVYLKGILAKAPFRVEGDKAYGPGIADDKGGNAVILHTLKLLKEYGVRDYGTITVLFNTDEEKGSFGSRDLIQEEAKLADYVLSFEPTSAGDEKLSLGTSGIAYVQVNITGKASHAGAAPELGVNALVEASDLVLRTMNIDDKAKNLRFNWTIAKAGLVSNIIPASATLNADVRYARNEDFDAAMKTLEERAQQKKLPEADVKVIVTRGRPAFNAGEGGKKLVDKAVAYYKEAGGTLGVEERTGGGTDAAYAALSGKPVIESLGLPGFGYHSDKAEYVDISAIPRRLYMAARLIMDLGAGK
With B1 the binding was “binds”.

Source: patent publication US20040014187A1, “Bacterial carboxypeptidase cpg2 variants and their use in gene directed enzyme prodrug therapy” (priority 2000, published 2004)
